Assay results taken from PMC9112550, “Optimization of the antimicrobial peptide Bac7 by deep mutational scanning” (BMC Biology, 2022).

System: E. coli TOP10
Experiment: Deep mutational scanning, epPCR (randomly mutagenized) Bac7_1-23 library, intracellular self-screening with NGS
Format: cell-based
Conditions: epPCR library, 601,551 variants; rank 1 = most active; qualitative measure

## RRIGPRPPRLPRSRLRPLPLPRP [epPCR library peptide ID 116736]
  Rank by antimicrobial activity: 3
